{
  "sequences": {"note": "Protein sequences, listed by entry. Tags and fused reporters are not part of them. Residues count along the entry.", "UniProt P00519, residues 61-121": "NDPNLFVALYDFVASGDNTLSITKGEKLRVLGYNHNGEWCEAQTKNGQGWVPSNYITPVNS"},
  "source": "paper PMC4196195",
  "binders": {"B1": {"name": "Tat-Apoptin (protein, UniProt Q99152 1-121)", "chain": "MNALQEDTPPGPSTVFRPPTSSRPLETPHCREIRIGIAGITITLSLCGCANARAPTLRSATADNSESTGFKNVPDLRTDQPKPPSKKRSCDPSEYRVSELKESLITTTPSRPRTAKRRIRL"}},
  "molecular_target": "SH3 domain of Abl (TransSignal SH3 Domain Array1, spots D 3, 4) (UniProt P00519)",
  "assay": "peptide or protein array; TransSignal SH3 Domain Array1 membrane (Panomics), SH3 domains spotted in duplicate, incubated with purified Tat-Apoptin; high stringency; chemiluminescence on film; both purified",
  "note": "Results are given in words; binding and its absence hold for the method and conditions named. Some entries that bind do so weakly or less than the wild type.",
  "data": [
    {"binder": "B1", "values": [
      {"measurement": "binding", "value": "binds"}
    ]}
  ]
}
